Measured values taken from the supplement of paper PMC10849652.
The other results are listed elsewhere or left out.

Protein sequences, listed by entry. Tags and fused reporters are not part of them. Lines headed by an entry give the natural chain unless they say otherwise; changes in a name come on top.
UniProt Q9NQZ5: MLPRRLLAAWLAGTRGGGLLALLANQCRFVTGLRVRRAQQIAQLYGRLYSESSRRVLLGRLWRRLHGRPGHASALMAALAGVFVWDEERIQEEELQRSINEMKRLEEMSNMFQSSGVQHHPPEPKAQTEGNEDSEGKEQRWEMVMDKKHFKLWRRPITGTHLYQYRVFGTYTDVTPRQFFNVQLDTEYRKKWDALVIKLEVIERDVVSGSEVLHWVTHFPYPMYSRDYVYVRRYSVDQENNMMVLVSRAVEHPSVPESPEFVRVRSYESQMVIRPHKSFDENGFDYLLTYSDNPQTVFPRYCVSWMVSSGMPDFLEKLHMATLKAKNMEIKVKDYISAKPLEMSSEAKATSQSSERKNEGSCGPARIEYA
UniProt Q01130: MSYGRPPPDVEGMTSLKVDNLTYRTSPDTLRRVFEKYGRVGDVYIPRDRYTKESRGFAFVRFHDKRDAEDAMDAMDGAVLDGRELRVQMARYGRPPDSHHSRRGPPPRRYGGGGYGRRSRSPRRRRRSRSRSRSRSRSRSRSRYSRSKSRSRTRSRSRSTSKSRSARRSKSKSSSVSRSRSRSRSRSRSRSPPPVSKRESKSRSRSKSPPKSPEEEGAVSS
UniProt P84103: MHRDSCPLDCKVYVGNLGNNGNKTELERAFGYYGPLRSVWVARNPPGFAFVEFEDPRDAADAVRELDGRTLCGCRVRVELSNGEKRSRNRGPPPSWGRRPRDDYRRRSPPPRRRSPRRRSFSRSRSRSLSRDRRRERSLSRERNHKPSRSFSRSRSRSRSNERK
UniProt Q05519: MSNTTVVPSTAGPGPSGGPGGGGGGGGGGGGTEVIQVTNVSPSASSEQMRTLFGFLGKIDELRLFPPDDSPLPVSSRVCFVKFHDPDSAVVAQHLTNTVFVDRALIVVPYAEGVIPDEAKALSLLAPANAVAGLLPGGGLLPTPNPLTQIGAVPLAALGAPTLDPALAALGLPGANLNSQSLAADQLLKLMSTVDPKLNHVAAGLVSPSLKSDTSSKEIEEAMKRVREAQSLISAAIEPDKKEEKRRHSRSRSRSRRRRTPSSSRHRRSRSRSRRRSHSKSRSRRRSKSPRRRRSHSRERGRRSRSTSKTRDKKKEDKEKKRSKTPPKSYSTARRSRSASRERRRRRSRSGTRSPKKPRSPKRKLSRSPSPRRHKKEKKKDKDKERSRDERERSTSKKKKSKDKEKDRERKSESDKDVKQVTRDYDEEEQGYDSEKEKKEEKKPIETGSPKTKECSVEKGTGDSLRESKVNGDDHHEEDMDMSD
UniProt Q8WW59: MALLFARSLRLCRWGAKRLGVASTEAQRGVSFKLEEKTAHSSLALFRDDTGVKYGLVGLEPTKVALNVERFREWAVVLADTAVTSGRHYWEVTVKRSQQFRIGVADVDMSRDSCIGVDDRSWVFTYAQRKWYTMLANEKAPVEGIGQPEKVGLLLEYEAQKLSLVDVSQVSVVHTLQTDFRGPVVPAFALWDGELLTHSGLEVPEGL
UniProt P61011: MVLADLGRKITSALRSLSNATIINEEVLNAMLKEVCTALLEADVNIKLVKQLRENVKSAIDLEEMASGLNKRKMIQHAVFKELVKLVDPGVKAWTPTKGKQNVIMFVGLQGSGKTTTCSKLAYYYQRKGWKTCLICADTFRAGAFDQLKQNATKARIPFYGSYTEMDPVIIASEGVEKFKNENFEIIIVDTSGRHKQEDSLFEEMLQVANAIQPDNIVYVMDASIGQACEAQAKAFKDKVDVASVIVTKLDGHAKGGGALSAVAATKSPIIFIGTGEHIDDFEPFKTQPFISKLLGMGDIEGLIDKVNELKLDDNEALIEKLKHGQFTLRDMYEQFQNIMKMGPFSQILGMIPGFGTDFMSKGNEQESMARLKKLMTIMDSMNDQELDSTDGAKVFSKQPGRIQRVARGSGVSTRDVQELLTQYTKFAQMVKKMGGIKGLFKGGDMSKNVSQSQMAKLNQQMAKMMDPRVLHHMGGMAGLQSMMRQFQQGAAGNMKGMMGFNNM
UniProt Q9NZD8: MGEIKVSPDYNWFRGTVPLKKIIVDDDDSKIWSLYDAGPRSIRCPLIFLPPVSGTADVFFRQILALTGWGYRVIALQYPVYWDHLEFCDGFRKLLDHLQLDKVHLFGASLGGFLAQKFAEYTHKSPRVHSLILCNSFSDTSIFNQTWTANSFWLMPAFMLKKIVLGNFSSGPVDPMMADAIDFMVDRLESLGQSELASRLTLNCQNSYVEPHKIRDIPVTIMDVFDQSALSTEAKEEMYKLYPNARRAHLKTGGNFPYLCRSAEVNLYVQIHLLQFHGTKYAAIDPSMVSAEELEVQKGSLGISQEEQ
UniProt Q08170: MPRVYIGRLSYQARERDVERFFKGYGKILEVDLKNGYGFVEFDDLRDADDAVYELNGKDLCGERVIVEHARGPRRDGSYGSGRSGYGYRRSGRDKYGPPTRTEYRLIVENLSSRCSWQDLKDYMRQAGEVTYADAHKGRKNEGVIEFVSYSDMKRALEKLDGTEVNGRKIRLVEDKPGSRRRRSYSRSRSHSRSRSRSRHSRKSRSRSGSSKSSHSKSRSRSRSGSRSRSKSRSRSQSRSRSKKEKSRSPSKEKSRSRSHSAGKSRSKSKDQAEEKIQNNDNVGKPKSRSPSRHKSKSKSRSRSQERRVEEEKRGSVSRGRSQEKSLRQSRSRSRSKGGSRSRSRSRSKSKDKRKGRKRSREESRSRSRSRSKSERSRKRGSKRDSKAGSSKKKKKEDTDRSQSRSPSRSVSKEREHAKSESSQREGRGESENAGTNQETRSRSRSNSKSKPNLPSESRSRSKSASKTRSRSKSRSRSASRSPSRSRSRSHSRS
UniProt P49458: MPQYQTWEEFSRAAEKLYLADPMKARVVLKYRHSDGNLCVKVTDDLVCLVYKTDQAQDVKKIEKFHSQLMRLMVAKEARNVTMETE
UniProt Q9BYN0: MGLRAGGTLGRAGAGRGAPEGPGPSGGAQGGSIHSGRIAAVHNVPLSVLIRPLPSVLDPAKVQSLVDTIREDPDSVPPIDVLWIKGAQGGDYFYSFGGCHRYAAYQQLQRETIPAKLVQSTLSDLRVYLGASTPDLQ
UniProt O95793: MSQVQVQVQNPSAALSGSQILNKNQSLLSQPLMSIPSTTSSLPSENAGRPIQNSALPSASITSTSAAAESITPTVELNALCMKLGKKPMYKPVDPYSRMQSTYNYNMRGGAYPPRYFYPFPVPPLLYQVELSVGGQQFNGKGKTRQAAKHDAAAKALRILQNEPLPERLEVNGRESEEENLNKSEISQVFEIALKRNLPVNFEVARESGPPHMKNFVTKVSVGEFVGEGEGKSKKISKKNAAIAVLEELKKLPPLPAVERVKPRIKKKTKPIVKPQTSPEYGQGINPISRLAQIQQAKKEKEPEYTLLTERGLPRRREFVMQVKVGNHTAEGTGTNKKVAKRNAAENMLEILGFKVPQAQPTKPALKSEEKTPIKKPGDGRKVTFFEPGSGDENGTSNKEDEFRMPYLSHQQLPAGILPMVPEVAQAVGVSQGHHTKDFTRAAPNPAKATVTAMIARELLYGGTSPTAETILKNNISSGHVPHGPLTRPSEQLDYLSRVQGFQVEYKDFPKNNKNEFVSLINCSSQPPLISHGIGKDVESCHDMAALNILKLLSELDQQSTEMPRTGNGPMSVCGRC
UniProt Q9NP77: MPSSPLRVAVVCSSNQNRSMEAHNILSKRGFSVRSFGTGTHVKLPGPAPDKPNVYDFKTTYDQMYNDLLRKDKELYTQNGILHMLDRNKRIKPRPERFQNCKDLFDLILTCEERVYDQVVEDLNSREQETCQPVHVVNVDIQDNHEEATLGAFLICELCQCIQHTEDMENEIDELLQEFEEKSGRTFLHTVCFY
UniProt Q8NBT2: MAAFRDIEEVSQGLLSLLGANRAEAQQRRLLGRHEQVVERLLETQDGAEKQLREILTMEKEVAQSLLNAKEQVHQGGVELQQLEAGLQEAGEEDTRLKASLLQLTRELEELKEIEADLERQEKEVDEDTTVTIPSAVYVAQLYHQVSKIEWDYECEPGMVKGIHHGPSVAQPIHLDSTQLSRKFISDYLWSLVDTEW
UniProt Q9BXP5: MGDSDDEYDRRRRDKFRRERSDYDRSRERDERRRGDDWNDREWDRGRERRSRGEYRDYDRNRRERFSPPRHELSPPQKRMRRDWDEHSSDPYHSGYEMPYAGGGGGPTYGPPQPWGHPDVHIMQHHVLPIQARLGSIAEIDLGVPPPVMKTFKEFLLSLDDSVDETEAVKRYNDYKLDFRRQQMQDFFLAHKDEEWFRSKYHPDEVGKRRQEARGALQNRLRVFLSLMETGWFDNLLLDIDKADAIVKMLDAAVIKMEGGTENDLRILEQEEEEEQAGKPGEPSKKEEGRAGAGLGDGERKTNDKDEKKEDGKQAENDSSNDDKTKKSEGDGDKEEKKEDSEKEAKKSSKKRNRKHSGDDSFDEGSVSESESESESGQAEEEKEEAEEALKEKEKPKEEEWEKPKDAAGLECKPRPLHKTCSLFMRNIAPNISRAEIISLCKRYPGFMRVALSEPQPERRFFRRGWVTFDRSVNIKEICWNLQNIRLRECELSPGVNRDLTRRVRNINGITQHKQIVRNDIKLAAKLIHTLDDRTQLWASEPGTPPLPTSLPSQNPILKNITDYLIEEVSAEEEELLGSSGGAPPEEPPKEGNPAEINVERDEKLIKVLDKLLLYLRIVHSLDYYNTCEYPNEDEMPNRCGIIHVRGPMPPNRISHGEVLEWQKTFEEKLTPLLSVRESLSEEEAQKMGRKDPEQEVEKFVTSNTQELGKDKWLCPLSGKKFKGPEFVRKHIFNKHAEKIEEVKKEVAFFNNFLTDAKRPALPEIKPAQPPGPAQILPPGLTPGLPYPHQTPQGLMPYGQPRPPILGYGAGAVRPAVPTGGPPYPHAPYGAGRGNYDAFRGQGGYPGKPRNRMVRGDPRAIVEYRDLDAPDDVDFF
UniProt Q08945, whole entry, looked up: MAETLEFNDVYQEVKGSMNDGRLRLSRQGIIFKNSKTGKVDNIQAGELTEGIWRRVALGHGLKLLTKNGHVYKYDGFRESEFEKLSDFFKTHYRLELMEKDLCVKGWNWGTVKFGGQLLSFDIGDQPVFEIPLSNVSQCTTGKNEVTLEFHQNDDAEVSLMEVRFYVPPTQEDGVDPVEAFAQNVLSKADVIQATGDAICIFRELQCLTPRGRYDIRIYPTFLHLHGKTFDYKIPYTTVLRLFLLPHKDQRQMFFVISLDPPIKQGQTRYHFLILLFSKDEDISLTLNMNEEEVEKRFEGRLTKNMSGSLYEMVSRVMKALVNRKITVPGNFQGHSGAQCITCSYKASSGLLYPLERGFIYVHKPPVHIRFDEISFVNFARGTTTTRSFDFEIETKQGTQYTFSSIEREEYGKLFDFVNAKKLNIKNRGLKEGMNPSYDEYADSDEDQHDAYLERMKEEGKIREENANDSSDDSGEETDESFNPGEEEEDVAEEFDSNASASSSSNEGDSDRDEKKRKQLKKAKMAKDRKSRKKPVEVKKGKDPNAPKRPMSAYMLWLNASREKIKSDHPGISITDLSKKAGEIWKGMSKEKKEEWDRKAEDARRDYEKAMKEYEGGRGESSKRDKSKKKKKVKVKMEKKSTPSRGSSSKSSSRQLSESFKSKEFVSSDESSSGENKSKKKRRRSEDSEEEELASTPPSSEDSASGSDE
UniProt P52630: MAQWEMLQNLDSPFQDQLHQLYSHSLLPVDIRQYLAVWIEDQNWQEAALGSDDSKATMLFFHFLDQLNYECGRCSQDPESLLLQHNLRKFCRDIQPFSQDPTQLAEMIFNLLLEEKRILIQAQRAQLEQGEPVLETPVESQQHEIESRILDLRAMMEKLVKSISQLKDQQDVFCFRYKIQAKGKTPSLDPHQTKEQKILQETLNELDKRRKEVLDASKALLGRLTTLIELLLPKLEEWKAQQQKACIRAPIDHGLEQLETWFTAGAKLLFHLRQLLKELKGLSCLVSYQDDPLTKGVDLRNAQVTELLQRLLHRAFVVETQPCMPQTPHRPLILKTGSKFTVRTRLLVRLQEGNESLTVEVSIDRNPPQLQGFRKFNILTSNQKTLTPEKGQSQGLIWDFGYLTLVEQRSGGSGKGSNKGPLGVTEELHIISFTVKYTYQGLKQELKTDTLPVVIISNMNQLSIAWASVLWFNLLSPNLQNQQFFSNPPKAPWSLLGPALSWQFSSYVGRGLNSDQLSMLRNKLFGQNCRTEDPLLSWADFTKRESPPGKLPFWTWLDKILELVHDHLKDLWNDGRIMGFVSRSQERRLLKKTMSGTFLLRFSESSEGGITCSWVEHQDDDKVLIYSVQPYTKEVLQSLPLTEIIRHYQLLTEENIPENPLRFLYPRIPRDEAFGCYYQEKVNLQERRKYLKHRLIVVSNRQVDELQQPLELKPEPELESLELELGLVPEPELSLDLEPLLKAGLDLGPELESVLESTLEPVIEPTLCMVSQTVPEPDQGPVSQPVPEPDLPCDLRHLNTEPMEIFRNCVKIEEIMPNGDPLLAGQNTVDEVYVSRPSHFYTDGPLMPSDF

Legend:
Assay in all cases: log2 fold change, soluble protein after heating vs DMSO (PISA); higher = thermal stabilisation; K562 lysate, 10 uM; active = over 0.2 and 3.5 SD of the protein, either way, in both replicates (recomputed)
[1] = compound: C1=CC=C(C=C1)[C@H](COC2=CC3=C(C=C2)NC(=O)N3)NC(=O)C4=CC=CN(C4=O)CC5=CC(=C(C=C5)F)F
Method in brief: (§1)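 K562 pellets were dounce-homogenised in PBS pH 7.4 containing 1 mM MgCl2, and the crude extract, at 1 mg/mL protein, was exposed to 10 μM compound for 30 min. Aliquots were heated for 3 min across 48°C-58°C, pooled, brought to 0.5% NP-40 at 4°C and spun at 21,000xg for 90 min, with the supernatant taken as soluble protein. TMTpro 16plex LC-MS/MS with equalised channel sums quantified that protein. Values are log-two fold changes in thermal stability relative to solvent controls, taken from duplicates.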

[2] = compound: CC1=C(SC2=C1C(=N[C@H](C3=NN=C(N32)C)CC(=O)N)C4=CC=C(C=C4)Cl)C
Method in brief: as §1

[3] = compound: CC1=C2C(=CC=C1)N=C(N(C2=O)C3=CC=CC=C3C)CN4C=NC5=C(N=CN=C54)N
Method in brief: as §1

[4] = compound: Cc1sc2c(c1C)C(c1ccc(Cl)cc1)=N[C@@H](CC(=O)OC(C)(C)C)c1nnc(C)n1-2
Method in brief: as §1

[5] = compound: c1ccc([C@@H]2C[C@H]2NC2CCNCC2)cc1
Method in brief: as §1

Measured: log2 fold change

STARD7 (UniProt Q9NQZ5)
inactive: [1] 0.033 | [2] 0.093 | [3] -0.037 | [4] -0.019 | [5] 0.051

SRSF2 (UniProt Q01130)
inactive: [1] 0.023 | [2] -0.011 | [3] 0 | [4] -0.058 | [5] -0.129

SRSF3 (UniProt P84103)
inactive: [1] 0.049 | [2] -0.047 | [3] -0.016 | [4] -0.015 | [5] 0.03

SRSF11 (UniProt Q05519)
inactive: [1] 0.005 | [2] 0.033 | [3] -0.005 | [4] 0.023 | [5] 0.038

SQSTM1 (UniProt Q13501)
inactive: [1] 0.027 | [2] 0.013 | [3] -0.028 | [4] -0.013 | [5] 0.025

Copied from the results shown (two entries):
SRSF3 (UniProt P84103)
inactive: [1] 0.049 | [2] -0.047 | [3] -0.016 | [4] -0.015 | [5] 0.03

SRSF11 (UniProt Q05519)
inactive: [1] 0.005 | [2] 0.033 | [3] -0.005 | [4] 0.023 | [5] 0.038

Additional entries follow:

SPRYD4 (UniProt Q8WW59)
inactive: [1] -0.027 | [2] 0.001 | [3] 0.022 | [4] 0.006 | [5] -0.03

SPEN (UniProt Q96T58)
inactive: [1] 0.097 | [2] 0.049 | [3] 0.031 | [4] -0.003 | [5] -0.116

SRGAP2 (UniProt O75044)
inactive: [1] 0.028 | [2] -0.016 | [3] -0.006 | [4] 0.01 | [5] 0.029

SRP54 (UniProt P61011)
inactive: [1] 0.023 | [2] 0.001 | [3] 0.03 | [4] 0.06 | [5] 0.049

SPG21 (UniProt Q9NZD8)
inactive: [1] -0.025 | [2] -0.044 | [3] 0.035 | [4] -0.008 | [5] 0.012

SRSF4 (UniProt Q08170)
inactive: [1] -0.027 | [2] 0.023 | [3] 0.019 | [4] 0.016 | [5] 0.052

SPECC1 (UniProt Q5M775)
inactive: [1] 0.006 | [2] -0.041 | [3] 0.142 | [4] 0.01 | [5] 0.004

SRP9 (UniProt P49458)
inactive: [1] 0.066 | [2] 0 | [3] -0.029 | [4] 0.049 | [5] -0.019

STAT5B (UniProt P51692)
inactive: [1] 0.004 | [2] 0.008 | [3] -0.01 | [4] 0.106 | [5] 0.053

SRXN1 (UniProt Q9BYN0)
inactive: [1] -0.001 | [2] -0.099 | [3] 0.089 | [4] -0.061 | [5] -0.015

SRSF7 (UniProt Q16629)
inactive: [1] -0.005 | [2] 0.023 | [3] 0.04 | [4] 0.025 | [5] -0.045

STAU1 (UniProt O95793)
inactive: [1] -0.023 | [2] -0.021 | [3] 0.012 | [4] 0.059 | [5] 0.09

SSU72 (UniProt Q9NP77)
inactive: [1] 0.014 | [2] 0.017 | [3] 0.078 | [4] 0.004 | [5] -0.17

SPC24 (UniProt Q8NBT2)
inactive: [1] -0.024 | [2] -0.073 | [3] -0.019 | [4] 0.021 | [5] 0.013

SRF (UniProt P11831)
inactive: [1] 0 | [2] 0.063 | [3] -0.121 | [4] -0.005 | [5] 0.027

SRRT (UniProt Q9BXP5)
inactive: [1] -0.003 | [2] 0.02 | [3] -0.002 | [4] 0.021 | [5] 0.068

SRRM1 (UniProt Q8IYB3)
inactive: [1] 0.035 | [2] 0.017 | [3] -0.034 | [4] 0.055 | [5] 0.045

SSRP1 (UniProt Q08945)
inactive: [1] 0.009 | [2] 0.032 | [3] 0.004 | [4] 0.007 | [5] 0.021

STAT2 (UniProt P52630)
inactive: [1] -0.033 | [2] 0.005 | [3] 0.043 | [4] 0.033 | [5] 0.017

SPTLC1 (UniProt O15269)
inactive: [1] -0.019 | [2] 0.017 | [3] 0.051 | [4] -0.029 | [5] -0.029
